These results are taken from patent publication US20130123358A1, “Metabolic Benefits to Butyrate as a Chronic Diet Supplement” (priority 2009, published 2013).

This data set has as its system C57BL/6J mice on high fat diet. Nature of the data set: Energy metabolism and body composition in diet-induced obesity, butyrate started with HFD. The data set is classed as in vivo, mouse. The conditions noted are these: butyrate 5% w/w in HFD vs control. The procedure:
Male C57BL/6J (4 weeks in age) and ob/ob mice (4 weeks in age) were purchased from the Jackson Laboratory (Bar Harbor, Me.). After one week quarantine, the C57BL/6J mice were fed on the high fat diet (HFD, D12331, Research Diets, New Brunswick, N.J.), which contains 58% calories in fat. The ob/ob mice were fed on Chow diet (5001, Lab Diet) that contains 13.4% calories in fat. All of the mice were housed in the animal facility with a 12:12-h light-dark cycle and constant temperature (22-24° C.). The mice were free to access water and diet. […]
Body composition was measured using quantitative nuclear magnetic resonance (NMR) as previously described (15). […] The fat and lean mass were recorded within 1 min. […]
Energy expenditure, respiratory exchange ratio (RER), spontaneous physical movement, and food intake were measured simultaneously for each mouse with the Comprehensive Laboratory Animal Monitoring System (Columbus Instruments, Columbus, Ohio) as described previously (15). […] After 48 h of adaptation, the data were recorded for all parameters and used in analysis of the energy metabolism.
Butyrate was initially tested for prevention of dietary obesity. […] Calorie intake was monitored four times in the first ten weeks. […]

As to `CCCC(=O)[O-].[Na+]` [sodium butyrate], the “spontaneous physical activity at the night time” value (10 wks on HFD) is recorded as “increased activity”. In addition, the “fat content in feces (fat absorption)” value (24 hr feces at 12 weeks) is “identical in the feces of two groups”.
